Drawing on PMC9789407, this text covers binding for two substances.

Protein sequences, listed by entry. Tags and fused reporters are not part of them. Lines headed by an entry give the natural chain unless they say otherwise; changes in a name come on top. Chains listed by the source or under a name are the forms on record and can include a tag or linker.
UniProt Q9BPZ7: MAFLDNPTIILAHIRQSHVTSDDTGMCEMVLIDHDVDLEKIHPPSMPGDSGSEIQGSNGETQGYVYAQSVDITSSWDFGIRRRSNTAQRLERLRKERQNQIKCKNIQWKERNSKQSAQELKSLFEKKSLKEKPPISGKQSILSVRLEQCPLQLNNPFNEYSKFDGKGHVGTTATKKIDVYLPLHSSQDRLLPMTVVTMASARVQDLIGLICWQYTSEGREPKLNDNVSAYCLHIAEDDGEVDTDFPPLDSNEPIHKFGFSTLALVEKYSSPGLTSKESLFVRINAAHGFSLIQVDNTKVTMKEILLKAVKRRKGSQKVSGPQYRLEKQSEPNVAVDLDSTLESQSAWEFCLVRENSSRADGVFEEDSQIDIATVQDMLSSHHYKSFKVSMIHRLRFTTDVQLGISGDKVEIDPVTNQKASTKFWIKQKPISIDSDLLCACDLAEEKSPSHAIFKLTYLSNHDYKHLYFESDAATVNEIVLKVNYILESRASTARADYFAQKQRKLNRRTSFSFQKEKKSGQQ
UniProt Q9WVC6: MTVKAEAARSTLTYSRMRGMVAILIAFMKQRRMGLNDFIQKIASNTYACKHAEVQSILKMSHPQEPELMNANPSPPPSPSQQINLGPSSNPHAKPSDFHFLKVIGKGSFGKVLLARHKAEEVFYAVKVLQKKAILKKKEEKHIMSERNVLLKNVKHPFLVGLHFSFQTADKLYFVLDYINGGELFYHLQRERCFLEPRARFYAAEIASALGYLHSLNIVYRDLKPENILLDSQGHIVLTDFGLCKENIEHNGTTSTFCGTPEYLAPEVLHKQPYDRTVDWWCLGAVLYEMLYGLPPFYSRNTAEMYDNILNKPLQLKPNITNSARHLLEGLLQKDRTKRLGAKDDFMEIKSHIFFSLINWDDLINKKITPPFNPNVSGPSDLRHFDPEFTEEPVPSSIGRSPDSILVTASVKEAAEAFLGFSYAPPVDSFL
Myc–WNK1 (1-491) (K233M) (Q9JIH7, form named): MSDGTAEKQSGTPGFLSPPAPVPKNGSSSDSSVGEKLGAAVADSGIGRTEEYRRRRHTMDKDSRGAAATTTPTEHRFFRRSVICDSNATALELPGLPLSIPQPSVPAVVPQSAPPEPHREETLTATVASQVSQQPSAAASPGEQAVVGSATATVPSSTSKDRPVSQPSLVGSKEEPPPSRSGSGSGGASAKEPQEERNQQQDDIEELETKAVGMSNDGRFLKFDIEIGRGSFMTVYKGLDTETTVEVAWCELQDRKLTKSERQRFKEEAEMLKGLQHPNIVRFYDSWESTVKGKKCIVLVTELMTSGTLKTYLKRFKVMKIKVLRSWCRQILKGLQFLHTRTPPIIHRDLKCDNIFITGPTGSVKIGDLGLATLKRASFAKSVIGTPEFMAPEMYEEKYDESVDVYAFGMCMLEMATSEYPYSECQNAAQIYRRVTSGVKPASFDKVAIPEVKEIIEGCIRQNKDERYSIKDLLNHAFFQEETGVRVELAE

No constants are given. Whether binding was seen depends on the method and setting. In cells and extracts the contact can be indirect. Some results given as binding are weak or reduced against the parent protein; the word gives no strength.

One experiment concerns the target SIN1–V5 (UniProt Q9BPZ7). The experiment is described as follows: co-IP; anti-V5 affinity gel IP of SIN1–V5 from transfected WNK1−/− SIN1−/− HEK-293T cells with add-back of WNK1 (Fig. S8C); 1% CHAPS buffer.
The next experiment deals with Flag–SGK1 (WT) (UniProt Q9WVC6). The experiment in a line: co-IP; anti-FLAG M2 affinity gel IP of Flag–SGK1 from WNK1−/− SIN1−/− HEK-293 cells transfected with Flag–SGK1, Myc–WNK1 (WT or K233M) and SIN1–V5; serum starved, 1 mM [K+] then 1 or 5 mM [K+] for 1 h; 1% CHAPS lysis buffer, overnight at 4°C; blots for V5 and Myc.

For “Flag–SGK1 (WT) (from UniProt Q9WVC6 1-431) (enzyme)”, the binding result in the experiment with SIN1–V5 is “binds”. Take “Myc–WNK1 (1-491) (K233M) (from UniProt Q9JIH7 1-491) (domain or fragment)”: the binding entry in the experiment with Flag–SGK1 (WT) is “binds”.
